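Apoptosis-linked caspase 3/7 signal, read as luminescence, in NIH 3T3 mouse cells after a 16 h exposure. Compounds were tested as a dilution series spanning roughly 0.59 nM to 92 µM. The number is the fitted AC50 potency for caspase activation, and a lower value means a more potent compound. Active requires a complete curve with a good fit, or a partial curve with a good fit and high efficacy; a flat curve is inactive; anything else is inconclusive.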

Values are in µM. All entries here are filed as inconclusive. Only part of the assay is shown, chiefly results filed as inconclusive. Potencies fitted to partial, single-point or poorly fitting curves are rough. Some entries filed as inconclusive have a full curve. The first word of each remark tells which way the curve ran; it can be opposite to the aim of the assay.

* COc1ccc(N=[N+]([O-])c2ccc(OC)cc2)cc1 : fitted potency 3.162 µM (falling, full curve)
* COc1cc([C@H]2Oc3cc([C@H]4Oc5cc(O)cc(O)c5C(=O)[C@@H]4O)ccc3O[C@@H]2CO)ccc1O : fitted potency 79.43 µM (rising, single point)
* COc1cc(/C=C/C(=O)CC(=O)/C=C/c2ccc(O)c(OC)c2)ccc1O : fitted potency 50.12 µM (rising, partial curve)
* [CH3][Hg][Cl] : fitted potency 2.512 µM (rising, single point)
* O=C(O)/C=C/c1ccc(/C=C/C(=O)O)cc1 : fitted potency 2.512 µM (falling, full curve)
* CC(C)(OO)c1ccccc1 : fitted potency 39.81 µM (rising, partial curve)
* CN1CSC(=S)N(C)C1 : fitted potency 79.43 µM (rising, single point)
* CC(/C=C/C=C(C)/C=C/C(=O)O)=C\C=C\C=C(C)\C=C\C=C(C)\C=C\C(=O)O : fitted potency 39.81 µM (falling, partial curve)
* COC1=CC(=O)O[C@@H](/C=C/c2ccc3c(c2)OCO3)C1 : fitted potency 10 µM (falling, partial curve)
* Cc1cc(Nc2ccc(O)cc2)ccc1N : fitted potency 31.62 µM (rising, single point)
* [O-][Br+2]([O-])O : fitted potency 15.85 µM (falling, full curve, poor fit)
* CN(C)c1ccc(N=Nc2ccccc2)cc1 : fitted potency 7.943 µM (falling, full curve)
* Cc1ccc2c(c1N)C(=O)c1ccccc1C2=O : fitted potency 10 µM (falling, full curve)
* O=C(Nc1ccccc1)Nc1ccccc1 : fitted potency 2.512 µM (falling, full curve)

Data taken from PubChem BioAssay AID666, deposited by NCATS (2007).